# In all, about 33,000 sequences were measured (“E-score (-0.5 to 0.5)”: median about -0.0034, highest 2% from about 0.25 on). The list shows a part of the results.
# Target: T1, Yap3 (UniProt P38749)
# T1 sequence: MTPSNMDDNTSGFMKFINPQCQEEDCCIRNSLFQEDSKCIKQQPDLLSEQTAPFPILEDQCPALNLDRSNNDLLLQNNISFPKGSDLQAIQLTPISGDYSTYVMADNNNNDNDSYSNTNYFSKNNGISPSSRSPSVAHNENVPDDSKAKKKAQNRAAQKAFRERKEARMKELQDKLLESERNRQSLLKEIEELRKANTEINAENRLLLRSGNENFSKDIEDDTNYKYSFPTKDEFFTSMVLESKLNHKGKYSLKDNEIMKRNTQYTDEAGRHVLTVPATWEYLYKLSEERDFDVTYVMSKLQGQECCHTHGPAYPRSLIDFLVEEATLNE
# Assay: PBM E-score (8-mer binding enrichment) (E-score (-0.5 to 0.5)); higher = stronger / more preferred TF binding
# Details: protein concentration: 100 nM; construct: GST-full length
# How it was run: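 Universal all-10-mer Agilent arrays, double-stranded by primer extension on fresh or once-stripped slides, were probed with about 100-200 nM GST-tagged yeast transcription factors made by PURExpress. Fluorescent anti-GST detected bound protein, and masliner normalised the scans. E-scores from the Universal PBM Analysis Suite were given to each ungapped eight-base word pooled with its reverse complement.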
row,Sequence,PBM E-score
1,ACGGACAC,-0.043
2,CCGCTCAG,-0.101
3,CCATCGAG,0.00505
4,TATTAATA,0.301
5,CCAACTAC,0.0977
6,AAGACTAT,0.0756
7,AAGATTCA,0.0769
8,GACACAGA,0.0192
9,AAGGGACT,0.0794
10,CAGCCTAA,-0.12
11,GACTTAAA,-0.00118
12,AGTATACA,0.144
13,ACTGTTTG,0.0933
14,ATGCGTTG,0.016
15,ACTCTCTC,-0.025
16,GGTTTAAC,0.106
17,GCATCCAC,0.0854
18,CTGGGAAC,-0.0171
19,ACTTTGGA,0.0611
20,ACTTCACA,0.0272
21,CCCAACGC,0.131
22,CTTAAGCC,-0.101
23,GAGTGCGA,-0.0768
24,CAACATAC,0.0807
25,ACGGCCCG,-0.121

# 2 records drawn at random from those above:
row,Sequence,PBM E-score
19,ACTTTGGA,0.0611
13,ACTGTTTG,0.0933

# Carrying on:

row,Sequence,PBM E-score
1,AATTGTAC,0.226
2,ACAAGAAT,0.1
3,CAGAGCAG,0.00746
4,GACACCTA,-0.0578
5,GTCTGTTA,0.0785
6,AATCTACC,0.102
7,GTTCATAA,0.0365
8,GCCAGAAA,0.234
9,CTGTGGTA,0.0204
10,AACCTTAC,0.192
11,CGCTGAGA,0.0336
12,TGCGTACA,0.0216
13,TACAACAA,0.211
14,ACTGTCCG,-0.0183
15,ATATAACA,0.229
16,CTATGAAA,0.124
17,ATTGATAG,0.237
18,ACACTTCT,-0.102
19,AGGGCGGC,-0.215
20,CAGCAGTC,-0.0195
21,CCATATAC,0.212
22,GAACCTTC,-0.0985
23,GAAAGCGC,0.0496
24,GTAAAAGA,0.136
25,AACCAGTG,-0.166

row,Sequence,PBM E-score
1,CGAAGCAG,-0.154
2,ACAGCTGG,-0.0613
3,TTCCTCAA,-0.0821
4,ACCAAAGT,-0.0543
5,CACTTTAA,0.227
6,CGTGTACA,0.166
7,CACTGCAG,0.0818
8,CCTAGACG,-0.324
9,CTAATTTA,0.19
10,ATGGCGTG,0.116
11,ATACCACG,0.0604
12,AGATTCGC,-0.0247
13,CGTCAACG,-0.0805
14,ACCAGCTC,-0.0393
15,GATTGTGC,-0.0016
16,CCTGCCGC,-0.267
17,TCGGTAAA,0.0807
18,TAAGTTAA,0.139
19,ACATCGCG,-0.152
20,GATCGGCC,-0.138
21,CACTTTTC,0.149
22,GTATGCAC,-0.138
23,ACCTTTTA,-0.0766
24,CCGCCGCG,-0.00774
25,ATCCTTTG,0.107

row,Sequence,PBM E-score
1,AAAATCCT,-0.0987
2,ATGCCCGG,-0.157
3,CCTGGATA,-0.231
4,GCAGTGTA,0.0324
5,GAGTACTC,0.163
6,ACAGGCCG,-0.112
7,AGGAGCCA,-0.244
8,AACACTCA,0.114
9,TGGTGGAA,-0.0612
10,AGATACTC,0.00888
11,ACTGACGA,-0.00354
12,GCTGCCAC,-0.15
13,AAGGACAT,0.0177
14,GAAAAATA,0.114
15,AGTCTCCG,-0.00689
16,AACCACGA,0.0793
17,CAGATGCA,-0.216
18,GAATTGTA,0.0803
19,CTTGCAAA,0.147
20,AGAAACAA,0.235
21,CATAACCC,-0.0918
22,AGCTGGTG,0.00702
23,CATTTAGG,-0.188
24,ATACAGAA,0.195
25,CATGGCGG,-0.249

row,Sequence,PBM E-score
1,CCGTGGCG,-0.127
2,CCTTAAAG,0.06
3,CAAGTTCA,-0.00101
4,GATTATGA,0.134
5,CTGCAGAA,0.2
6,CCGTTCGA,0.0189
7,CGCGGCTC,0.0963
8,GCTTCGGA,0.0206
9,GTGTTATA,0.136
10,CCAAAAAG,0.0995
11,AATTTTAC,0.258
12,ACCACGGG,-0.184
13,ACCGGTTA,0.0946
14,ACATTAAG,0.16
15,CCCGCCGA,-0.172
16,ATAATCGC,0.0527
17,GTTGGGTA,0.0966
18,CCCAAGGC,-0.128
19,GGAGGCTA,-0.259
20,TATTGACA,0.0463
21,CCAGGTCC,-0.307
22,ACGGATAT,0.179
23,TCCTTGAA,-0.0971
24,AGGGTTCG,-0.0179
25,GACCAGCA,0.132

row,Sequence,PBM E-score
1,AACACCGT,-0.0219
2,CTCTCACC,-0.102
3,CGACATCG,-0.159
4,GTTATCTA,0.0492
5,ACAGCCCT,-0.309
6,AATTAGCT,-0.0397
7,GCCCCCCC,-0.41
8,GATATTCA,0.0491
9,CTGCGGAA,-0.0449
10,AGCGCGAA,0.146
11,CACATCCA,0.071
12,GCATAGGC,-0.0143
13,AACATAGC,0.104
14,GTCGCGGA,-0.155
15,CTATAATA,0.0592
16,AGGGGTAT,-0.0192
17,CAAGCATA,0.0597
18,GGATGTTA,0.055
19,CTTGCAGA,-0.039
20,CTCGGAAA,0.0289
21,ACAACACT,0.248
22,CCAAATAC,-0.144
23,ACGCCGTA,-0.0525
24,AAGGCTTG,0.014
25,CAACGTAC,0.11

row,Sequence,PBM E-score
1,CCCTCTTA,-0.00996
2,ACGCATGC,0.00764
3,CGATAGCG,0.0721
4,ACTAAATA,0.29
5,CCAGCGGA,-0.264
6,CACCGGAC,-0.0614
7,CATCTTCC,0.107
8,ACCGTCGT,0.0609
9,ACATTGGC,-0.0552
10,GTCGGTTA,-0.00978
11,CGGGCGAA,-0.0828
12,GGGCGAAC,0.0304
13,CGCGCTCA,0.0763
14,ATACGACC,0.0496
15,AAGCGAAC,-0.0302
16,AGCGACGG,0.0129
17,ACGAGCAG,0.00252
18,CGCCAGGA,-0.0722
19,AAATCATA,0.18
20,CTGGGCTA,-0.179
21,CTATTTCA,0.159
22,AATGCATT,0.258
23,ATCCAACG,-0.109
24,ACACACTA,0.13
25,GAATCCAA,0.0225

row,Sequence,PBM E-score
1,GACGGGAC,-0.318
2,ACCCAGTG,-0.188
3,AAGGAAAC,-0.0451
4,AGGCGAAA,0.13
5,TAGCGATA,0.0942
6,CAGGATGG,-0.188
7,CGGAGAGA,-0.0683
8,CAGGTTAC,0.0255
9,AACCATGA,0.215
10,GGGAGGGA,-0.11
11,ATTATGCA,0.0948
12,AAAGCATG,-0.0278
13,CCGGGAAA,-0.111
14,GAGTAACA,0.231
15,CATAAATC,0.183
16,GATTTGGA,-0.0207
17,CATTAAAC,0.104
18,CGATTTAA,0.153
19,CAGGGATG,-0.228
20,CTGTAACC,0.0728
21,AATGGGGC,-0.119
22,AGTGGACC,-0.155
23,ATGTCCGA,-0.0604
24,AAAATATT,0.318
25,GCTCTCCC,-0.171

# Given with tabs: part of the list above.
row	Sequence	PBM E-score
9	AACCATGA	0.215
10	GGGAGGGA	-0.11
11	ATTATGCA	0.0948
12	AAAGCATG	-0.0278
13	CCGGGAAA	-0.111

# Carrying on:

row,Sequence,PBM E-score
1,ACATGATC,0.115
2,TTGTGAAA,0.0216
3,AAGGTTTA,-0.101
4,CGCCAGCG,-0.177
5,GACCAACC,-0.181
6,AAAGCAGA,0.216
7,CAAGAGGA,-0.0349
8,ATCAACTA,0.213
9,ACATACCC,0.0479
10,GCAAAGGA,0.184
11,ATATTCCC,0.163
12,GAATTGCC,0.0463
13,AAGGGTCA,-0.154
14,ATCTTCTA,0.0985
15,TACCTCAA,0.0657
16,GCATTCCC,-0.0258
17,CACCCTGC,-0.0024
18,ACGGAAGC,-0.0665
19,CGTACGCC,-0.0467

# — the supplement of paper PMC3334620
